# Earlier results, collected in patent US20060251705A1 (Wyeth, priority 2005, published 2006).
# For at least one compound, name, drawing or mass did not settle the structure.
# Settings: Minocin Prescribing Information: not to be mixed with solutions containing heparin sodium; cited from earlier work
compound,measurement,value
CN(C)c1ccc(O)c2c1C[C@H]1C[C@H]3[C@H](N(C)C)C(O)=C(C(N)=O)C(=O)[C@@]3(O)C(O)=C1C2=O [minocycline],compatibility with heparin,demonstrated incompatibility
